Test results published in publication PMC1308830.
The exact form of at least one protein or probe is not confirmed. Results from cells or extracts need not show a direct contact. For part of these data: Negatives hold for the conditions tested. For part of these data: Where a protein sequence is shown, tags need not be part of it.

Protein sequences, listed by entry. Tags and fused reporters are not part of them.
UniProt Q7TQN4, whole entry: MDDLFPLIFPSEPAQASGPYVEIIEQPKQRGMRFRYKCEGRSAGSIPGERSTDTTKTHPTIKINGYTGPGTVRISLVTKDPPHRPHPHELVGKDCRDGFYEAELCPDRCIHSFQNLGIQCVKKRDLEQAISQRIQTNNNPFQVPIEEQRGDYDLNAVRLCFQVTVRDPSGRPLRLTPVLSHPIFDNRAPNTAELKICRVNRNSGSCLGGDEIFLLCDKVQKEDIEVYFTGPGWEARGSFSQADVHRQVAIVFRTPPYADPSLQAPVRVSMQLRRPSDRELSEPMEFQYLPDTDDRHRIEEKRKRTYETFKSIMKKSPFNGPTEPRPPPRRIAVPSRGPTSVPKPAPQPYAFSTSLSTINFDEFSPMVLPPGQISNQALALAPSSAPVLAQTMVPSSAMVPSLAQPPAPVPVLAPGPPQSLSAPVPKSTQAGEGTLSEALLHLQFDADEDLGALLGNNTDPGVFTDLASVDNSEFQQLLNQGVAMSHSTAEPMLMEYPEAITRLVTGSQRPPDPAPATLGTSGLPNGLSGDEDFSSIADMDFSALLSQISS

Experiments:
[1] = system: NF-kB p65 (RelA) + NF-kB p50; assay: EMSA; settings: p65/p50 heterodimer, CCN2-treated HSC; 20 ul, 6 ug nuclear extract (8 ug for supershift), 1 ug poly dI:dC, 0.2 ng 32P probe, 4 C 30 min; 4% native PAGE (8% for supershift); salt and pH not stated; protein in an extract; label: 32P end label
[2] = biological target: NF-kB p65 (RelA) (rat (primary hepatic stellate cells)) (UniProt Q7TQN4); assay: EMSA; settings: p65/p65 homodimer, CCN2-treated HSC; 20 ul, 6 ug nuclear extract (8 ug for supershift), 1 ug poly dI:dC, 0.2 ng 32P probe, 4 C 30 min; 4% native PAGE (8% for supershift); salt and pH not stated; protein in an extract; label: 32P end label
[3] = biological target: T1, NF-kB p50 (rat (primary hepatic stellate cells)) (UniProt Q63369); assay: EMSA; settings: p50/p50 homodimer, CCN2-treated HSC; 20 ul, 6 ug nuclear extract (8 ug for supershift), 1 ug poly dI:dC, 0.2 ng 32P probe, 4 C 30 min; 4% native PAGE (8% for supershift); salt and pH not stated; protein in an extract; label: 32P end label
T1 sequence (looked up, limits assumed): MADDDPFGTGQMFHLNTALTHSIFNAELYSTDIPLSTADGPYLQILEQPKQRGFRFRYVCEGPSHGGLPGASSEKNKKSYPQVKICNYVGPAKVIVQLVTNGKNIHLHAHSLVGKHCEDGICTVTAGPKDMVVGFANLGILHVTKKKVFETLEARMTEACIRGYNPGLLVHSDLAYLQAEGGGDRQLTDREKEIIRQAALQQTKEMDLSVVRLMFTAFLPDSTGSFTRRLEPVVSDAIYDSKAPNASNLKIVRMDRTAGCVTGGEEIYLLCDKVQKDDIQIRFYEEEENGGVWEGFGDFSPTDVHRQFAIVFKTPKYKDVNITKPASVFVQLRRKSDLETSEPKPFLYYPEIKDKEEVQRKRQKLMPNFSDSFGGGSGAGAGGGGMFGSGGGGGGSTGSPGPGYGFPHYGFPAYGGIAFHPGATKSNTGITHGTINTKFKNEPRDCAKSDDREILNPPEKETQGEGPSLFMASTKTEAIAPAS

[4] = system: NF-kB p65 (RelA) + NF-kB p50; assay: EMSA supershift; settings: p65/p50 heterodimer, CCN2-treated HSC, anti-p65 and anti-p50; 20 ul, 6 ug nuclear extract (8 ug for supershift), 1 ug poly dI:dC, 0.2 ng 32P probe, 4 C 30 min; 4% native PAGE (8% for supershift); salt and pH not stated; protein in an extract; label: 32P end label
[5] = biological target: NF-kB p65 (RelA) (rat (primary hepatic stellate cells)) (UniProt Q7TQN4); assay: EMSA supershift; settings: p65/p65 homodimer, CCN2-treated HSC, anti-p65; 20 ul, 6 ug nuclear extract (8 ug for supershift), 1 ug poly dI:dC, 0.2 ng 32P probe, 4 C 30 min; 4% native PAGE (8% for supershift); salt and pH not stated; protein in an extract; label: 32P end label
[6] = biological target: T1, NF-kB p50 (rat (primary hepatic stellate cells)); assay: EMSA supershift; settings: p50/p50 homodimer, CCN2-treated HSC, anti-p65 plus anti-p50 removes all three bands, anti-p65 only the top two; 20 ul, 6 ug nuclear extract (8 ug for supershift), 1 ug poly dI:dC, 0.2 ng 32P probe, 4 C 30 min; 4% native PAGE (8% for supershift); salt and pH not stated; protein in an extract; label: 32P end label

“TGAGGCGACTTTCCCAGG (double strand) [p50/p65 mutant oligonucleotide]”: no binding [1]; no binding [2]; no binding [3].

“TGAGGGGACTTCCCGAGG (double strand) [CBF1-mutant oligonucleotide]”: binds [1]; binds [2]; binds [3].

“TGAGGGGACTTTCCCAGG (double strand) [wild type NF-kB oligonucleotide (NF-kB/CBF1 sites)]”: binds [4]; binds [5]; binds [6].
